Sequences of proteins named here, by UniProt entry; tags and fusion partners are left off. Residues count along the entry.
UniProt P28476, 21-465: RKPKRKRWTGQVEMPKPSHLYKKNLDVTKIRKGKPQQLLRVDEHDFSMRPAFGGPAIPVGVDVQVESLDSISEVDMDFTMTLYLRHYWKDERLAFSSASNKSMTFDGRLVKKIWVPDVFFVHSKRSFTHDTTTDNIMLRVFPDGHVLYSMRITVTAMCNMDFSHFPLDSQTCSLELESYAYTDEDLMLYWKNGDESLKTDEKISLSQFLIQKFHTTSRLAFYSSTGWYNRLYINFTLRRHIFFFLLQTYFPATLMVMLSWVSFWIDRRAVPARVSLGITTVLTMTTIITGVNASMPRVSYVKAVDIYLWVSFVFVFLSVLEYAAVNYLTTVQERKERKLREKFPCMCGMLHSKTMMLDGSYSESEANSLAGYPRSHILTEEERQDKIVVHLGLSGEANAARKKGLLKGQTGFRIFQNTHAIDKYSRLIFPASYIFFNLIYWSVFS

In article PMC13194042, “GABAA receptor agonists modulate intracellular Ca^2+ levels in activated human CD4^+ T cells” (Frontiers in Immunology, 2026):

Legend:
[1] = molecular target: GABAA receptors in activated human CD4+ T cells (Homo sapiens, UniProt P28476); test: Calcium imaging: agonist-evoked intracellular Ca2+ response in activated CD4+ T cells; assay type: cell-based; conditions: comparison with ref [13]
Excerpt: Human blood samples and blood buffy coats were obtained from Uppsala University Hospital (Uppsala Akademiska sjukhuset), the protocol of which was approved by the Regional Research Ethics Committee in Uppsala (Dnr 2013/347). All individuals who donated blood were voluntarily recruited. Peripheral blood mononuclear cells (PBMCs) were isolated from blood samples using density-gradient centrifugation with Ficoll-Paque™ PLUS (Sigma Aldrich, Sweden). Subsequently, CD4^+ T lymphocytes were isolated from the PBMCs by negative selection, utilizing a human CD4^+ T lymphocyte isolation kit (Miltenyi Biotec, Germany) as per the manufacturer’s instructions. The freshly isolated CD4^+ T lymphocytes (1 million cells/mL) were suspended in human plasma-like medium (HPLM) (Gibco, Fisher Scientific, Sweden) containing 10% heat-inactivated dialyzed fetal bovine serum (Gibco, Fisher Scientific, Sweden), 100 μg/mL streptomycin, 100 U/mL penicillin (Gibco, Fisher Scientific, Sweden), and 5 μM β-mercaptoethanol (Gibco, Fisher Scientific, Sweden). […]
Calcium imaging was performed as previously described ([12]). […] The area around the individual cells was marked, and absolute fluorescence intensity values (F) were extracted using ZENBlue software. The relative intensity (F/Fmedian) for each cell was calculated for every recorded image and plotted against time. […]

[2] = test system: GABAA receptor Cl- currents in human CD4+ T cells; conditions: read-out: EC50 for the GABA-activated Cl- current, ref [12]; cited from earlier work

NCCCC(=O)O [GABA, γ-Aminobutyric acid]
shift of EC50 for GABA-evoked Ca2+ signal toward higher affinity vs Xenopus oocytes' EC50 for GABA-activated Cl- currents [1]: approximately 10^6 fold | EC50 [2]: 0.04 nM
